Our source for the binding values is article PMC10994172.

By UniProt entry, the sequences of proteins in these tests, tags left out. Where a name states a change or a piece, a line headed by the entry shows the natural chain unless it says otherwise.
UniProt P19097: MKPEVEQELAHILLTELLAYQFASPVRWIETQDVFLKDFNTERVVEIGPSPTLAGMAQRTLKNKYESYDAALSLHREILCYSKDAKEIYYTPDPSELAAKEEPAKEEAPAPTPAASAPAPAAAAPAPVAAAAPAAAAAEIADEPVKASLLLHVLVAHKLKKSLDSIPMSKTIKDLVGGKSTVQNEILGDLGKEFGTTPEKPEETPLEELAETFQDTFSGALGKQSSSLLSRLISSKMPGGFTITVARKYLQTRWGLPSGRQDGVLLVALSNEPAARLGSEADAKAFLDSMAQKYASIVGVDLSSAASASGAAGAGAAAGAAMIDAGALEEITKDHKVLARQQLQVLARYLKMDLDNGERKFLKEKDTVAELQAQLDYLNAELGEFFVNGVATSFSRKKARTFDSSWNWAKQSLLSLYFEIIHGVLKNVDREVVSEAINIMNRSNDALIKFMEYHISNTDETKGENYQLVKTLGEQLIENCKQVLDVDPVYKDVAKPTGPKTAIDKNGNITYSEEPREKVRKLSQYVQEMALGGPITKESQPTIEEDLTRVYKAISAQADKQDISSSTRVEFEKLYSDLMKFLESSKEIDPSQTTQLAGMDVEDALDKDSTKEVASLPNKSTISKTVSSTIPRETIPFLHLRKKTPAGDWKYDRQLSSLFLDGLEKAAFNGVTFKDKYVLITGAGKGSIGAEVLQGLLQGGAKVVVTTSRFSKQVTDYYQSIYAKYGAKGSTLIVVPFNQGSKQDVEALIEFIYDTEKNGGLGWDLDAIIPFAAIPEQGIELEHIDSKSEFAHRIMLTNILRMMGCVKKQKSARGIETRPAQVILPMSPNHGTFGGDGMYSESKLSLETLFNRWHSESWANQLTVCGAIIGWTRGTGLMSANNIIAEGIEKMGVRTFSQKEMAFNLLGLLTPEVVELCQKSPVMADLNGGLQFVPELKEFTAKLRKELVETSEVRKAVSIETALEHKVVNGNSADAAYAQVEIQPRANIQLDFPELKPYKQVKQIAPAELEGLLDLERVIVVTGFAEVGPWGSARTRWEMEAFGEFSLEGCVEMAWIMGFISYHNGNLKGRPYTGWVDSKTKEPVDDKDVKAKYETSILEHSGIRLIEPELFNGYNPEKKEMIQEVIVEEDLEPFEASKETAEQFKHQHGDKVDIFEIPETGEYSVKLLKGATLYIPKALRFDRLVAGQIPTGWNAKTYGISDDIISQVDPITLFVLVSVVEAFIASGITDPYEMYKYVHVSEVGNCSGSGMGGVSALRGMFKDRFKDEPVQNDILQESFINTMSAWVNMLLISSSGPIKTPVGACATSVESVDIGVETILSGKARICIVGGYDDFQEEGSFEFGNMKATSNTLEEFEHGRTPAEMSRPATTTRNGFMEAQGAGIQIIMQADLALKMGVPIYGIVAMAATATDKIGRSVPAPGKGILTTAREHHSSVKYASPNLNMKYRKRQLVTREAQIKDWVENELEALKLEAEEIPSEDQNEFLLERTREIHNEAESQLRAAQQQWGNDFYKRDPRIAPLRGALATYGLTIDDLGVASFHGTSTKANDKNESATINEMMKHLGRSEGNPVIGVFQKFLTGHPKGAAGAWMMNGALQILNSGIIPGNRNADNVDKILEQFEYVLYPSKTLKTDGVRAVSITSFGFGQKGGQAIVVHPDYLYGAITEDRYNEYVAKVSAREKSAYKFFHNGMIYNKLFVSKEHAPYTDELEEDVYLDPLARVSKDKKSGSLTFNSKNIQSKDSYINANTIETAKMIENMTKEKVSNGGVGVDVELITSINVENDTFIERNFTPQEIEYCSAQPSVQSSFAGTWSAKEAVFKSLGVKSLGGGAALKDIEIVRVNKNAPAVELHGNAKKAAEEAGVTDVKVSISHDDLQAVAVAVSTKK
UniProt P07149: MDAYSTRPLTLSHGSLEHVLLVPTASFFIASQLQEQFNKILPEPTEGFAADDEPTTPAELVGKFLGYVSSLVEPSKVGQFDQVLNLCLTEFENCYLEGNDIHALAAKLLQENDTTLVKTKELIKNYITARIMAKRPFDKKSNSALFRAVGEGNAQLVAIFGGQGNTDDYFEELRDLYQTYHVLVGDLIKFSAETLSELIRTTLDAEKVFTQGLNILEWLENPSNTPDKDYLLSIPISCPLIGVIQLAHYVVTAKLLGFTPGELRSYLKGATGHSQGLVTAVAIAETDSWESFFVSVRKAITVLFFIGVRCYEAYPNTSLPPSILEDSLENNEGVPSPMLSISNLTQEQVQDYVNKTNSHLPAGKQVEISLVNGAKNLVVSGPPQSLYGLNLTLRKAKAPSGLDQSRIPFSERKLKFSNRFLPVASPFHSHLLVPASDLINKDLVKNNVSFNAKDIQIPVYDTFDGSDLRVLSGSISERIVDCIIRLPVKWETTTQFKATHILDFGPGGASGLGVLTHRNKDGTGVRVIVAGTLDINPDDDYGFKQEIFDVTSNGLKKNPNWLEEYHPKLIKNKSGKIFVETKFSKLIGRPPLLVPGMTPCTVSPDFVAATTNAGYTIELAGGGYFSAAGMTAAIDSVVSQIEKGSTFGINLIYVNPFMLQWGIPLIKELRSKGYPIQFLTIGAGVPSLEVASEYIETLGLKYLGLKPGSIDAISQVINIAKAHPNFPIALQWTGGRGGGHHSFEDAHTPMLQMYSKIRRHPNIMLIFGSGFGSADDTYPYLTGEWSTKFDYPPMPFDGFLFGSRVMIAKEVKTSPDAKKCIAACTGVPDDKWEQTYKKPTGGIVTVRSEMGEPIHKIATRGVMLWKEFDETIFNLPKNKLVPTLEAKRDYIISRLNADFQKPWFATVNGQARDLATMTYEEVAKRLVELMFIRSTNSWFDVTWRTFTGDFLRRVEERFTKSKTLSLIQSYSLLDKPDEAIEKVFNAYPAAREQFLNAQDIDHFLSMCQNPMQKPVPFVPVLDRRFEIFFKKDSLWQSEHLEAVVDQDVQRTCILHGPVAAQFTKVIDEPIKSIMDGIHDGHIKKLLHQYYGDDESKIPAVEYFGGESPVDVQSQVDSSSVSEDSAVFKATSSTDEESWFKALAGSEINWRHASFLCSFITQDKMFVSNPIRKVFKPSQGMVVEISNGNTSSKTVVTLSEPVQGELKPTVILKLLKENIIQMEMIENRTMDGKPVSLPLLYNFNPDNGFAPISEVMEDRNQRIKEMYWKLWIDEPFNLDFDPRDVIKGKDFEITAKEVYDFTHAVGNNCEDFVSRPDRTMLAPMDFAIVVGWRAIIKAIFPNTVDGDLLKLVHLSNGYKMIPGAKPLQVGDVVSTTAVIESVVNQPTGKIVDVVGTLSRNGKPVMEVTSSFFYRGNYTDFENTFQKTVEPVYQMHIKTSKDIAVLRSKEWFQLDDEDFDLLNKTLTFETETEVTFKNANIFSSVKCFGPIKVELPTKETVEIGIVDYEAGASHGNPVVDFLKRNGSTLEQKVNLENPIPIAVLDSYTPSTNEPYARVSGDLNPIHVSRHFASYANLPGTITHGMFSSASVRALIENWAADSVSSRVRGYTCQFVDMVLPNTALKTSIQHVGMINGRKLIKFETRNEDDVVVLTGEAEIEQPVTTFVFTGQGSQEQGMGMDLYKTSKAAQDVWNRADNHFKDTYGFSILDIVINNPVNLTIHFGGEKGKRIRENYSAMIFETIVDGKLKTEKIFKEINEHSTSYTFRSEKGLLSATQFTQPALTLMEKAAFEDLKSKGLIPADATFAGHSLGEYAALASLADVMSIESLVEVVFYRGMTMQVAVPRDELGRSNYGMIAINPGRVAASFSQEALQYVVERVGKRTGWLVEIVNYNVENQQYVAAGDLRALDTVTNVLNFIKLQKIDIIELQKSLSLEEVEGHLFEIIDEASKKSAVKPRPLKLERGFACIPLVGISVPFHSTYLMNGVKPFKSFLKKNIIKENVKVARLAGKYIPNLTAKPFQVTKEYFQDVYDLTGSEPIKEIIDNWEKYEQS

This experiment addresses Yeast fatty-acid synthase (FAS) (yeast) (UniProt P19097+P07149). Kind of experiment: cryo-EM structure; both purified.

Results are given in words; binding and its absence hold for the method and conditions named. Some binding calls cover weakened binding; strength is not graded here.

In the case of “Yeast fatty-acid synthase (FAS) (from UniProt P19097 1-1887; P07149 1-2051) (complex)”, the binding entry is on record as “binds”.
